Assay results: PubChem BioAssay AID1794845 (National Center for Advancing Translational Sciences (NCATS), 2023)
In all, about 6,900 compounds went through this assay and fewer than 10 were called active. Calls come from the whole dose curve; as a rule, active = well fitted curve in the direction sought with a large enough effect; inconclusive = small, poorly fitted or top-dose-only effect, or another doubt; inactive = no such curve, though single readings can be large or run the other way. Some of the results follow.

By UniProt entry, the sequences of proteins in these tests, tags left out. Where a name states a change or a piece, a line headed by the entry shows the natural chain unless it says otherwise.
UniProt C7C422: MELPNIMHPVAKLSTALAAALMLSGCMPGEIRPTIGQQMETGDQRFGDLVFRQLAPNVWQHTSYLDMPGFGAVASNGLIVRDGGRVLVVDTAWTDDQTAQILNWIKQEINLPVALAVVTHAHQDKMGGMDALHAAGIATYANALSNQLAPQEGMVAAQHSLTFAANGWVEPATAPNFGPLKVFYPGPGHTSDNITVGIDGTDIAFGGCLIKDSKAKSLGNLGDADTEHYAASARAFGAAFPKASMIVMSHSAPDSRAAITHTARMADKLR

Biological target: Metallo-beta-lactamase type 2 (Klebsiella pneumoniae) (UniProt C7C422)
Experiment: qHTS to identify inhibitors of the New Delhi Metallo-beta-lactamase (NDM): primary screen against the NCATS Gemini Collection; note: % of control where 0% means no effect
Conditions: NDM-1 enzyme, meropenem hydrolysis, absorbance 300 nm; at 38.4 µM (top of the series) unless noted
From the text: Assay Submitter (PI): James Inglese Ph.D., Patricia Dranchak Ph.D., Mahesh Aitha Ph.D. Assay Development and Screening Technology Laboratory (ADST) National Center for Advancing Translational Sciences (NCATS), Rockville, MD National Institute of Health (NIH), Bethesda, Maryland The metallo-beta-lactamases (MBL) are a main antibiotic resistance mechanism evolved by bacteria. There is an urgent clinical need for MBL inhibitors to mitigate this growing threat. To support a machine-based learning study, qHTS has been used to experimentally test inhibitors identified by prediction tools.
PROTOCOL TABLE (as described by Inglese et al., 2007) SEQUENCE No. (e.g., 1, 2, 3, etc.); […] (e.g., enzyme, Incubation, Reagent, etc.); VALUE; DESCRIPTION 1; NDM-1; 4 uL of 3 nM enzyme [2 nM final] in 50 mM HEPES (pH 7.0), 1 uM […], 0.01% Tween20; Use BioRaptr to dispense into Aurora black, clear bottom low base 1536-well plates 2; Compounds; 23 nL; Use Pin Tool (Wako) to transfer DMSO control and library compounds in DMSO 3; Incubate; >30 min 4; Reagent; 2 uL of 150 uM meropenem [50 uM final] 5; Incubate; 30 min. 6; Detector; Absorbance at 300 nm (bandwidth = 5 nm, 25 flashes/well) on Tecan Infinity NOTES (numbers refer to sequence above) 1; Column 1 of each plate received assay buffer without enzyme and columns 2-48 received enzyme for a final assay concentration of 2 nM. 2; Control plate contained DMSO in columns 1, 2, 3, and 4. 3; Compound interaction with enzyme. 4; Meropenem substrate was prepared in the same assay buffer as step 1 for a final assay concentration of 50 uM and added to all wells across the assay plates. 5; Substrate interaction with enzyme, plateau phase of kinetics. 6; Default reader settings were applied for absorbance read at 300 nm, bandwidth = 5 nm, 25 flashes/well. References: Inglese J, Shamu CE, Guy RK. 2007. Reporting data from high-throughput screening of small-molecule libraries. Nat Chem Biol. doi:10.1038/nchembio0807-438 Yasgar A, Shinn P, Jadhav A, Auld D, Michael S, Zheng W, Austin CP, Inglese J, Simeonov A. 2008. Compound Management for Quantitative High-Throughput Screening. J Lab Autom 13:79 - 89. doi:10.1016/j.jala.2007.12.004

Structure (SMILES) | activity % (negative = inhibition)
N#Cc1cncc(N2CC3CCC(C2)N3CC(F)(F)F)c1 | inactive: 2.91% [at 57.5 µM]
N[C@H]1[C@H](O)[C@@H](N2CCCCC2)[C@@H]2OC[C@H]1O2 | inactive: -1.36% [at 77.1 µM]
COc1ccc(-c2cc([C@H]3CN4CC[C@H]3C[C@@H]4COC(=O)Nc3ccccc3)n(C)n2)cc1 | inactive: 10.2%
CCN(C1CCOCC1)C1CNC1 | inactive: 2.54%
CN(CCc1ccccn1)C[C@H]1CN2CC[C@H]1C[C@@H]2CNC(=O)c1ccco1 | inactive: -12.1% [at 57.5 µM]
CC(=O)c1cccc(NC(=O)NC[C@H]2C[C@@H]3CCN2C[C@@H]3c2cc(-c3ccc(F)cc3)nc(C)n2)c1 | inactive: 8.74%
O=C1NC[C@H]2CN(C3CCOCC3)CCN12 | inactive: -0.184% [at 77.1 µM]
CN1c2cccnc2CNCC[C@H]1CO | inactive: 0.229% [at 77.1 µM]
COc1ccc(C(=O)NC[C@H]2C[C@@H]3CCN2C[C@@H]3c2cc(-c3cccs3)nn2C)cc1 | inactive: -0.61%
CN(CCc1ccccn1)C[C@H]1CN2CC[C@H]1C[C@@H]2CNC(=O)Nc1ccsc1 | inactive: -2.02% [at 57.5 µM]
Nc1ncccc1CN1CC[C@H]2NCCC[C@]2(C(=O)O)C1 | inactive: 2.6%
COCC1CN(C2CCC2)CC12CCN(Cc1ccncc1)CC2 (stereo not drawn) | inactive: -6.91%
Cc1nc(CCN)no1 | inactive: 18.4%
COc1ccc(-c2cc([C@H]3CN4CC[C@H]3C[C@@H]4COC(=O)NC3CCCCC3)nc(C)n2)cc1 | inactive: 1.01%
COCC1CN(Cc2ccsc2)CC12CCNCC2 (stereo not drawn) | inactive: 0.108%
CC(=O)NC[C@H]1C[C@@H]2CCN1C[C@@H]2c1cc(-c2ccc3ccccc3c2)nn1C | inactive: 2.52% [at 57.5 µM]
CN1C(=O)[C@H]2CN(Cc3ccsc3)C[C@H]2C1=O | inactive: 0.493%
O=C(Nc1ccc2n(c1=O)C[C@H]1C[C@@H]2CN(CC2CCCCC2)C1)C1CCCCC1 | inactive: 6.12% [at 57.5 µM]
Cc1ncc2c(n1)C[C@@H]1CC[C@H]2N1C(=O)C1CCC1 | inactive: 7.25%
Cc1cnc(N2CC3CCC(C2)N3CC(F)(F)F)c([N+](=O)[O-])c1 | inactive: 3.49%
O=C(Nc1ccc(=O)n2c1[C@@H]1C[C@@H](CN(S(=O)(=O)c3ccccc3)C1)C2)c1ccco1 | inactive: 13.4%
CSCC(=O)Nc1ccc(=O)n2c1[C@@H]1C[C@@H](CN(C(=O)NC3CCCCC3)C1)C2 | inactive: 6.87% [at 57.5 µM]
O=C(Nc1ccccc1)C1=NO[C@@H]2CN(Cc3ccccn3)C[C@H]12 | inactive: 9.83% [at 57.5 µM]

Given as comma-separated lines: entries from further up.
Structure (SMILES),activity % (negative = inhibition)
CC(=O)c1cccc(NC(=O)NC[C@H]2C[C@@H]3CCN2C[C@@H]3c2cc(-c3ccc(F)cc3)nc(C)n2)c1,inactive: 8.74%
O=C1NC[C@H]2CN(C3CCOCC3)CCN12,inactive: -0.184% [at 77.1 µM]
